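Genome-wide siRNA knockdown in TC32 Ewing sarcoma cells, comparing luciferase light from an NR0B1-promoter reporter with a CMV-promoter reporter 48 hours after transfection. Each siRNA was applied at 20 nM. A z-score of the log NR0B1-over-CMV signal, less the median of siRNAs with the same seed; more negative means a stronger specific loss of the NR0B1 reporter.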

This is part of the screen; most of the strongest results are not listed here. Sequences are the guide (antisense) strand, without overhang.

siRNA,target gene,seed-corrected z-score
UAAGGGUUAUCGAUGAUGU,TAF8,0.1311
UCUGAUACCAGUGAAUCCU,LOC646588,-0.09438
UUUGCGUUUAGUAGAGGUC,CCNI,-0.4458
UUGUUCAUCUCAUAGAUUC,LDB2,0.08905
AAUGAGAAGAGUCAAACCA,RTN2,0.03216
UUCAGAUACACUACGGUGG,SLC35F6,0.1057
UUCGCAGUAGGUUUUUCCG,FARSA,0.2169
UUGCUUUUAUUCCUGAACC,ADAMTSL1,-0.05225
UUACUCUAGGUUCAUGUCC,RBM45,-0.2256
UCAGAUUGUAGCGGGAUCC,PPP4R3A,0.3621
UUUCGUAUUGUUGUAAAGC,C14orf119,1.3
UAUGAGAAUCUUGAAUGCG,SCN4B,-0.2185
UUCUCGAAGUCUGACAUGC,PIGR,-0.632
UUCGAUGACGAGGUCCUGC,ZNF296,-0.8231
UGUUGGUGCAGUCAUAAGC,FPGS,-0.04443
UCCUGAAUCAGCUCCUCGG,RABEP2,0.4311
UAGCGGGCAAACUUCAGGU,SLC29A2,-0.7091
UGGAGUUCGAUCAACCACU,BMS1P21,-1.621
AAUCAAGUGAUUGUGAGCC,ZNF578,-0.3157
AAAUCUUUCCGAACUAAUU,SLED1,0.333
UAAGCAUCACUAAGAUGUU,LOC652608,-1.104
AUGUUGAUCACGGUGGACC,IFITM1,2.493
AAAGAGUAAACCCACAUCC,SLC1A5,-0.4271
AUAGAGAACGCUGGAGCCC,ODF3L2,-0.5813
UUCAGUCGAUGCUUUGUCC,FAM111A,0.4885
UCCUCUACCACUCAUUCGC,ARHGAP21,-0.4078
UCUAAGUUCAUCGGUUUUC,DEK,0.001279
AUUGUGAACAGAGAAUAUG,HRH4,0.1752
UCCGUUCUGAAGAUAGAUC,SGOL2,0.1986
UUCCCUUAUUGAACCAUUC,LOC645100,-0.2445
AGCGGUUGAAGCAAGGUGG,LRRN4,-0.3775
UUGCUUGCCUGGAAGAAGU,LOC642355,1.127
AACAUAUUUAGACUGGAGC,APOOL,1.376
UUGCUAUCCAAAACCUUGG,RHBDL2,-1.329
AUCGUAGAAAUAGUAGAGC,SPPL2B,0.007517
UUAUCCAAUGGGAAGGUGC,DEPTOR,0.1752
AUACUUGCAACUAUCCUCC,NDC1,-1.571
UAUGGGCAUCUGUACUUCC,LDLRAD2,0.9593
AGAUCCAAAACCUAUGACC,MFSD14B,-0.135
UUCCGAGUAUGCAAUCACC,OSGEP,-0.19
AAUGCUGCAACUGUGGGUC,TIMM8A,-0.3451
UGAUCUAUCUCACAGAAUC,CRB1,0.3173
UUGGGUAACGGUGAGCUAC,GLCCI1,-0.5336
AUAGUCCUUACAUAGCUGG,TRAPPC3,0.06321
UGAAGACUCAGGCCUAUCC,SRRM2,-1.169
AUUAUUCGCAAAAUCAUCC,CAPN7,-0.1557
UCAUGUAGUCGGACGAUGU,CAMK2A,-0.04739
UAAGCUUCAACUGUCAUAA,NDUFC2,0.9907
UGUUGUAGUCGUAAUAGCC,FOXRED1,-0.5752
AAUGUUGAAAUAUUCUCGG,CFAP54,0.06596
UUGUGCAUGAGCCUUAUUG,GNAQ,0.3847
UAUACGUUCAUGGUCUUCG,ADNP,-0.2782
UCAUUUCUAGGUCCAAAUC,VAMP4,1.122
UUUGUUCCCUCCGCUGUAG,ABCA7,1.835
UGUGGUUCUGCACUCUGAG,TRIM15,-0.8628
UGUUAUACAGGACAAAGGC,ADGRL3,-0.5075
UCAUUUCCAAUCCAAUUUG,TAAR1,-0.04353
AAAACGGACACUUAUAAGG,ZNF236,-0.3096
UUCUCUUCACGGGUGAUGG,CRYAB,-0.6429
UCAGCUAAAACCACUUCGG,CAMK1D,0.7018
UAAGAGUAAAGGAGUAGAU,NAT1,0.106
UGCGGUAUAACGCACGUUC,DYNC1H1,-0.4227
UUAGGUAAAAGACCCAGGU,FAM166B,1.135
UUCUUAUCAAAUGCUUAAC,MRPL30,0.8178
ACCUUUCCAAGCUCUAUCC,LINC01091,-0.9036
UGUAGAAUAAGUCCCAGUG,ANAPC4,-1.305
UGCAUUGUUAACUUCAAUC,UBA6,-0.1631
UGGUCGUUUAGGAUGCUCU,SMUG1,-0.5054
AUUAAGAUAAACAGCAUUC,PNPLA1,0.6762
UAGCUACAGGCUGAUAUUC,PLIN3,-0.05329
UUGGUGGUCUUUCCUUUGC,DPY30,-0.6436
UCCAUUAUCCUGAACAUAC,CTSL,-0.1981
GAAGAAGCCCUCCUGGUCU,PCP2,0.4766

7 of the entries, repeated:

{"sirna": "AUAGUCCUUACAUAGCUGG", "target gene": "TRAPPC3", "seed-corrected z-score": "0.06321"}
{"sirna": "AAUGCUGCAACUGUGGGUC", "target gene": "TIMM8A", "seed-corrected z-score": "-0.3451"}
{"sirna": "AUUAAGAUAAACAGCAUUC", "target gene": "PNPLA1", "seed-corrected z-score": "0.6762"}
{"sirna": "AAAACGGACACUUAUAAGG", "target gene": "ZNF236", "seed-corrected z-score": "-0.3096"}
{"sirna": "UGAAGACUCAGGCCUAUCC", "target gene": "SRRM2", "seed-corrected z-score": "-1.169"}
{"sirna": "UAAGGGUUAUCGAUGAUGU", "target gene": "TAF8", "seed-corrected z-score": "0.1311"}
{"sirna": "UUUGUUCCCUCCGCUGUAG", "target gene": "ABCA7", "seed-corrected z-score": "1.835"}

The results are deposited in PubChem (AID1159506; NCATS, 2015).